# The other results are listed elsewhere or left out.
# Tested on: T1, CTL2-GFP (C. trachomatis L2/434/Bu, GFP-expressing)
# T1 construct: L2/434/Bu, GFP-expressing
# Parameters: species or system HeLa; Intracellular C. trachomatis growth in HeLa cells, bulk GFP fluorescence relative to DMSO
# Settings: bulk GFP, single well; 28.5 h, 10 µM; inhibitor
row,Structure (SMILES),% of control remaining
1,Cc1[nH]c2c(C)cccc2c1CC(=O)NC1CCCN(C)C1 (stereo not shown) [CBK282485],127.274%
2,CCN(CC)CCC(=O)c1ccc(Cl)cc1 [CBK015906C],149.097%
3,CC(C)N1CCC(=NNC(=O)c2cc(O)c(O)c(O)c2)CC1 [CBK262626],110.022%
4,Cc1c(C(=O)N2CCCC2C(N)=O)nnn1Cc1ccc(F)cc1F (stereo not shown) [CBK305925],106.713%
5,Cc1ccccc1Nc1nc(N)nc(CN2CCCC2C(=O)N(C)C)n1 (stereo not shown) [CBK305638],115.674%
6,Cc1cnn(C(C)C(=O)N2CCc3c(nc(N(C)C)nc3N(C)C)C2)c1 (stereo not shown) [CBK307556],103.108%
7,CCOc1ccccc1NC(=O)c1cc2cccnc2n(Cc2ccc(Cl)cc2)c1=O [CBK294395],113.943%
8,CCn1c(C(O)c2ccccc2)n[nH]c1=S (stereo not shown) [CBK015110],172.1%
9,Cc1[nH]c2ccccc2c1C(=O)CCC(=O)O [CBK260871],114.595%
10,O=C(Cc1ccc(F)cc1)N1CCCC1c1cccc(Cc2ccc(F)cc2)n1 (stereo not shown) [CBK286234],118.214%
11,CC(O)(CC#N)c1ccccc1 (stereo not shown) [CBK028508],98.6159%
12,CC(=O)C(CC(=O)O)C1=C(O)CC(C)(C)CC1=O (stereo not shown) [CBK287127],119.775%
13,Cc1ccc(S(=O)(=O)Nc2ccc(C(=O)Nc3ccc(S(=O)(=O)N4CCCCC4)cc3)cc2)cc1 [CBK269000],107.863%
14,CCOc1ccc(NC(NC(=O)Nc2ccccc2)C(Cl)(Cl)Cl)cc1 (stereo not shown) [CBK261294],106.332%
15,COc1ccc(Cl)cc1N1CCN(CCO)CC1 [CBK138339],105.765%
16,COc1ccc(Oc2cncc(OC3CCN(CC4CC4)C3)n2)cc1OC (stereo not shown) [CBK084412],79.5721%
17,COc1ccc(C(=O)OC(C)(C)C)c(-c2nccnc2N[C@@H](C)c2ccccc2)c1 [CBK036994],93.8687%
18,Nc1ncc(-c2cccc([N+](=O)[O-])c2)nc1-c1ccc(O)cc1 [CBK122507],129.641%
19,Cc1cc(=O)n2c3c(cc(S(=O)(=O)NC4CC4)cc13)CC2 [CBK218959],100.1%
20,Cc1nn(C)c(Oc2cccc(C(F)(F)F)c2)c1C(=O)O [CBK000324],109.888%
21,COc1ccc(C2CC(=O)C=C(Nc3cc(Cl)ccc3O)C2)cc1 (stereo not shown) [CBK263542],20.088%
22,O=C(O)c1ccc(NS(=O)(=O)c2cccc([N+](=O)[O-])c2)cc1O [CBK200022],138.076%
23,O=[N+]([O-])c1ccc(CN2CCN(C3CCN(Cc4ccccc4)CC3)CC2)cc1 [CBK264310G],100%
24,Cc1ccccc1Nc1ccccc1C(=O)O [CBK012249],103.802%
25,COc1cccc(CN2CCC3(CC2)NC(=O)Cc2ccc(C)cc23)c1 [CBK040219],118.154%
26,COc1cc2c(cc1NC(=O)c1ccc(C)c([N+](=O)[O-])c1)oc1ccccc12 [CBK263411],127.728%
27,COC(=O)c1c(-c2ccncc2)csc1NC(=O)Cc1ccc([N+](=O)[O-])cc1 [CBK268119],107.739%

row,Structure (SMILES),% of control remaining
1,O=C(CN1CCC(c2ccccc2F)CC1)NCc1ccco1 [CBK283550],117.315%
2,COC(=O)c1ccsc1NC(=O)CN1CCNCC1 [CBK057080],157.847%
3,CCOC(=O)C1(Cc2cc(-c3ccccc3F)no2)CCNCC1 [CBK284580],69.3862%
4,CCNC(=O)N1CC(C)N(CCCCc2ccc(F)cc2)C(C)C1 (stereo not shown) [CBK025027C],129.622%
5,c1ccc(OCCN2CCC3(C2)NCCc2[nH]ccc23)cc1 (stereo not shown) [CBK084595T],114.248%
6,Cc1ccc2cc(CN(Cc3ccco3)S(C)(=O)=O)c(O)nc2c1 [CBK269409],166.915%
7,CCOc1cc2c(cc1NS(=O)(=O)c1cc(C(=O)O)ccc1C)OC(C)C2 (stereo not shown) [CBK296711],132.45%
8,CN1CCCC(NC(=O)Cn2nc(C(F)(F)F)c3c2CCCC3)C1 (stereo not shown) [CBK282548],119.503%
9,COc1ccc(C2=C(Nc3ccc(C(=O)NCc4cccnc4)cc3)c3ccccc3C2=O)cc1 [CBK263809],148.372%
10,COc1ccc(-c2cc(C3CCN(C4CCSCC4)C3)[nH]n2)cc1 (stereo not shown) [CBK285282],125.118%
11,O=C(CCCOc1ccc(Cl)cc1Cl)Nc1c[nH]c(=O)[nH]c1=O [CBK264235],104.941%
12,CCc1c(C)nc2c(C(=O)NC(CC)COC)cnn2c1C (stereo not shown) [CBK162133],126.565%
13,CC1CC1C(=O)NC1CCN(CC2(c3ccccc3)CC2)CC1 (stereo not shown) [CBK285353],130.557%
14,N#Cc1c(SCC(=O)O)nc(-c2cccs2)c2c1CCCC2 [CBK269858],116.77%
15,CC(C)OC(=O)Cc1nc(CN2CCOC(c3ccc(F)cc3)C2)cs1 (stereo not shown) [CBK305439],95.5752%
16,OCCC1CCCCN1c1cncc(-c2cccc(Cl)c2)n1 (stereo not shown) [CBK037906],84.9177%
17,N#Cc1c[nH]c(C(=O)NC2CCN(C(=O)c3ccccc3)CC2)c1 [CBK306433],140.347%
18,CS(=O)(=O)Nc1nccnc1OC1CCN(CCc2c[nH]c3ccccc23)CC1 [CBK084282],83.2679%
19,CCC(CO)Nc1cncc(-c2ccc3c(c2)OCO3)n1 (stereo not shown) [CBK065970],99.6838%
20,COCCn1cc(CN2CCC(CO)C2)c2ccccc21 (stereo not shown) [CBK282123],140.104%
21,Cc1n[nH]c(C)c1CC(=O)N1CCCC(c2cc3ccccc3cn2)C1 (stereo not shown) [CBK285018],90.1318%
22,Cc1nc(C(C)NC(=O)c2cc(C3CC3)nc3c2c(C)nn3C)cs1 (stereo not shown) [CBK304779],103.219%
23,COc1ncc(-c2cncc(NCCc3ccccn3)n2)c(OC)n1 [CBK065287],231.545%
24,Cc1c(Nc2cnn(C34CC5CC(CC(CC(=O)O)(C5)C3)C4)c(=O)c2Cl)c(=O)n(-c2ccccc2)n1C [CBK268707],133.393%
25,CC(Oc1cccc(Cl)c1)C(=O)O/N=C(\N)Cc1cccc2ccccc12 (stereo not shown) [CBK266033],177.368%
26,C=CCN(c1ccccc1)S(=O)(=O)c1ccc(Br)cc1CC [CBK038344],89.815%
27,Cc1nc2c(c(=O)[nH]1)CC[C@@H]1CN(C(=O)c3occ4ccccc34)C[C@H]21 [CBK284408],76.8946%

row,Structure (SMILES),% of control remaining
1,CN(C)CCN1CCN(c2cccc(-c3ccncc3)n2)CC1 [CBK037029],164.833%
2,CS(=O)(=O)c1ccc(CNC(=O)c2ccccc2-n2cccc2)cc1 [CBK149612],111.72%
3,O=C(Nc1ccc(Oc2ncccn2)cc1)c1csc(-c2ccccc2)n1 [CBK298324],122.003%
4,CS(=O)(=O)Nc1ccc(-c2cccc(C(F)(F)F)c2)c2ccccc12 [CBK083746],108.724%
5,O=C(c1ccc(F)cc1)C1CCN(CCc2c[nH]c3ccccc23)CC1 [CBK149125],100%
6,CNc1nc(SCC(=O)Nc2ccc(Cl)c(Cl)c2)nc(N2CCOCC2)n1 [CBK269559],182.331%
7,Cc1sc2ccc(-c3ccccc3)cc2[n+]1CCCS(=O)(=O)[O-] [CBK260947],109.708%
8,COc1ccc(S(=O)(=O)N(C)CC(=O)O)cc1 [CBK287086],125.831%
9,Cn1ccnc1CN1CCCC(CCC(=O)Nc2ccccc2F)C1 (stereo not shown) [CBK307462],193.902%
10,CCCC(=O)N1CCCCC1c1nn(C)cc1-c1cc(C)no1 (stereo not shown) [CBK283407],90.0521%
11,COc1cc(NC(=O)N2CCC3(CC2)CC(=O)c2ccc(C)cc2O3)cc(OC)c1 [CBK166521],125.016%
12,Cc1cc(NC(=O)CSc2nc3c(c(C(F)(F)F)n2)CCc2ccccc2-3)n(-c2ccccc2)n1 [CBK266086],173.893%
13,C(=C\c1nccnc1OCCn1cccc1)/c1ccccc1 [CBK106884],111.134%
14,O=C1CCC(=O)N1CCOc1nccnc1N1CCN(CC2CCCCC2)CC1 [CBK084306],114.866%
15,O=C(Cn1c(C2CCOCC2)cc2cccnc21)NC1CCCC1 [CBK285157],118.197%
16,CC(=O)OC(Cn1c2ccccc2c2ccccc21)Cn1c2ccccc2c2ccccc21 [CBK262307],101.252%
17,COc1cccc2c1cc(C(=O)NCCCc1ccccn1)n2C [CBK283283],141.694%
18,COc1cccc2sc(N(Cc3cccnc3)C(=O)c3ccc(S(=O)(=O)N(C)C)cc3)nc12 [CBK294420],108.052%
19,CC(C)(C)/N=C1/SCC(C)(/C=N\O)S1 (stereo not shown) [CBK009726],98.8293%
20,O=C(NCc1c(F)cccc1F)c1ccc2nc[nH]c2c1 [CBK153315],118.924%
21,COc1ccc(-c2cc3ncnc(Sc4nnnn4CC4CCCO4)c3s2)cc1 (stereo not shown) [CBK297157],109.571%
22,O=C(O)c1cc(Cl)c2c(c1)[C@@H]1C=CC[C@@H]1[C@H](c1cccc(Br)c1)N2 [CBK077927],112.772%
23,Fc1cccc(-c2cncc(NCCc3c[nH]c4ccccc34)n2)c1 [CBK065288],124.853%
24,Cc1ccc(C2=CCN(CC(=O)Nc3ccc(N(C)C)cc3)CC2)o1 [CBK283604],136.94%
25,CC(C)c1ccc(Cc2cnc(NC(=O)c3cc(Br)cs3)s2)cc1 [CBK300503],159.328%

# Molecules above that have an aryl thioether with sulfur outside any ring:
row,Structure (SMILES),% of control remaining
14,N#Cc1c(SCC(=O)O)nc(-c2cccs2)c2c1CCCC2 [CBK269858],116.77%
6,CNc1nc(SCC(=O)Nc2ccc(Cl)c(Cl)c2)nc(N2CCOCC2)n1 [CBK269559],182.331%
12,Cc1cc(NC(=O)CSc2nc3c(c(C(F)(F)F)n2)CCc2ccccc2-3)n(-c2ccccc2)n1 [CBK266086],173.893%
21,COc1ccc(-c2cc3ncnc(Sc4nnnn4CC4CCCO4)c3s2)cc1 (stereo not shown) [CBK297157],109.571%
